In patent US20180311311A1 (Pieris, published 2018) one finds binding data, which are given here for two molecules.

Numbering of substitutions follows the chain as printed. These are yes or no findings as the source states them, for the method shown. Some results given as binding are weak or reduced against the parent protein; the word gives no strength.

One experiment addresses T1, Cynomolgus hepcidin 25 (Cynomolgus monkey, UniProt A7XEI3 60-84, not fully specified).
T1 construct: mature; also called Cynomolgous hepcidin 25
T1 peptide: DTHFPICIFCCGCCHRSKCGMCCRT
The experiment is described as follows: SPR (Biacore T200), mutein immobilized on CM5 chip, 1:1 binding model. In general terms: SPR reads the build-up and loss of mass on a sensor chip optically.

Experiment [1] concerns the target T2, Hepcidin-25 containing a C-terminal biotin group (human).
T2 sequence (peptide, C-terminal biotin group): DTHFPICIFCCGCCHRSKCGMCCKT
The experiment in a line: solution competition ECL assay, 25 pM Hepcidin-25-C-bio, competitor 12B9 on the plate.

B1: hepcidin-specific lipocalin mutein (hNGAL mutein) having the sequence of SEQ ID NO: 1 (designed binder)
chain: QDSTSDLIPAPPLSKVPLQQNFQDNQFHGKWYVVGLAGNEVLREDKDPMKMWATIYELKEDKSYNVTIVMPLAEKCEYLFQTFVPGCQPGEFTLGGIKSGPGRTSGLVRVVSTNYNQHAMVFFKVVWQNREVFWVTLYGRTKELTSELKENFIRFSKSLGLPENHIVFPVPIDQCIDG
notes: also called the lipocalin mutein; hNGAL mutein having a free cysteine residue at amino acid position 87
For B1, the binding result in the experiment with Cynomolgus hepcidin 25 is “binds”.

B2: lipocalin mutein (SEQ ID NO: 3) (designed binder)
chain: B1 chain with K59E, P71F, E74K, C87S, G96D, G100S, V125T, V135I
For B2, in experiment [1], the binding entry is on record as “binds”.
